Measurements reported in PubChem BioAssay AID1508588 (Peter MacCallum Cancer Centre, 2020).
Here is an unselected part of about 18,000 reagents. Of all reagents, 790 (4.4%) were called active. 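Calls rest on a combination of fold-change classes in drug and vehicle arms, not all shown here.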 Entries without a mark were called inactive.

Aim: 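Which gene losses make BRAF-mutant melanoma cells more responsive to vemurafenib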 (primary screen)
System: human WM266.4 melanoma cells (BRAF V600 mutant)
Reagents: siRNA pool against human genes, 40 nM
Timing: 96 h from transfection to read-out
Treatment: vemurafenib 300 nM (about IC25), added 48 h after transfection, for 48 h; comparison arm got DMSO vehicle only
Detection: 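Cell gain (DAPI nuclei at end minus before drug, mean of two replicates) and medium lactate by absorbance per cell, both as ratio to non-targeting siRNA, also grouped into fold-change classes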
Scale: cell gain with vemurafenib: higher = more cell gain than with non-targeting siRNA; lactate per cell with vemurafenib: higher = more lactate made per cell
Rule for the call: 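a knock-down counts as enhancing when its fold-change classes with vehicle and with vemurafenib, taken together, show a stronger drug effect on cell gain or lactate per cell; exact class pairs not stated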
Calls: active = enhances vemurafenib effect; inactive = no enhancement seen

Knock-down of OLFM3 resulted in: cell gain with vemurafenib 0.39; lactate per cell with vemurafenib 0.86.
With knock-down of CDKN1C the results were cell gain with vemurafenib 0.65; lactate per cell with vemurafenib 0.77.
With knock-down of APOA2, the record shows cell gain with vemurafenib 0.2; lactate per cell with vemurafenib 2.05.
SETD3 showed cell gain with vemurafenib 0.38; lactate per cell with vemurafenib 1.67.
Against CD300C, the entry reads cell gain with vemurafenib 0.53; lactate per cell with vemurafenib 1.48.
Depletion of ARFGAP3 gave: cell gain with vemurafenib 0.52; lactate per cell with vemurafenib 1.1.

Just “cell gain with vemurafenib” (2 entries from above):
APOA2	0.2
SETD3	0.38

Next reagents:
Silencing of ULK2 gave: cell gain with vemurafenib 0.28; lactate per cell with vemurafenib 0.5.
GPR174 showed cell gain with vemurafenib 0.28; lactate per cell with vemurafenib 3.05.
For EXOSC3 the deposit lists cell gain with vemurafenib 0.66; lactate per cell with vemurafenib 1.32.
MAPK15 scored cell gain with vemurafenib 0.11; lactate per cell with vemurafenib 1.43.
NOP9 scored cell gain with vemurafenib 0.25; lactate per cell with vemurafenib 1.37.
After knock-down of ELAC1 the results were cell gain with vemurafenib 0.63; lactate per cell with vemurafenib 0.99.
ABI1 scored cell gain with vemurafenib 0.88; lactate per cell with vemurafenib 0.72.
Against SCAMP1, the values are cell gain with vemurafenib 0.73; lactate per cell with vemurafenib 0.94.
With knock-down of VPS54, the screen gave cell gain with vemurafenib 0.55; lactate per cell with vemurafenib 0.52.
NPTX2 showed cell gain with vemurafenib 0.79; lactate per cell with vemurafenib 0.42.
